Data as given in publication PMC4840434, “The interactome of Streptococcus pneumoniae and its bacteriophages show highly specific patterns of interactions among bacteria and their phages” (Scientific Reports, 2016).
Results are given in words; binding and its absence hold for the method and conditions named. Some binding calls cover weakened binding; strength is not graded here.

Biological target: T1, Cp-1 Cpl1, Lysozyme (phage Cp-1 of S. pneumoniae) (UniProt P15057)
T1 sequence: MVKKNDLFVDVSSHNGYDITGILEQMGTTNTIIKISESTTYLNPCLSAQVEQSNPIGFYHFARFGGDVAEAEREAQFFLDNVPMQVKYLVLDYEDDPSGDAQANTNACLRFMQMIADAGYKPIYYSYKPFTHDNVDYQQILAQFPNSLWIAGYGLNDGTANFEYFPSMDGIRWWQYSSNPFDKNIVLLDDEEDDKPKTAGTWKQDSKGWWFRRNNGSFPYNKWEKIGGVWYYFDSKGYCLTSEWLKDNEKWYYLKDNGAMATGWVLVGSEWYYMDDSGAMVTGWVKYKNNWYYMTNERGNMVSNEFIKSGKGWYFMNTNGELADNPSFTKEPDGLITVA
Experiment: two-hybrid; yeast two-hybrid array screen: Cp-1 and Dp-1 baits in pDEST32 against 1,704 S. pneumoniae TIGR4 ORF preys in pDEST22; strength by 3-AT up to 50 mM (3AT score = 3ATmax - 3ATbackground)

B1: SP_1208, uridine kinase (LuMPIS construct) (natural protein, S. pneumoniae TIGR4, UniProt P67413 1-212, looked up)
chain: MQNRPIIIGVTGGSGGGKTSVSRAILSHFPDEKISMIEHDSYYKDQSHLTFEERVKTNYDHPFAFDTDLMIEQIKELLAGRPVDIPTYDYTEHTRSSKTYRQEPQDVFIVEGILVLEDKRLRDLMDIKIFVDTDDDVRIIRRIKRDMEERGRSLDSVINQYLGVVKPMYHQFIESTKRYADIVIPEGVSNTVAIDLLTTKIAKILEEARNSK
notes: SP_1208 uridine kinase, S. pneumoniae TIGR4; ORF in a Gateway LuMPIS vector; source: HEK cells, raw protein extract
  binding: binds
